This is an account of results in paper doi:10.1101/605725.

Amino acid sequences for entries named in this document (tags omitted). A change or cut given only in a name is not applied to a line headed by its entry.
UniProt Q9VV73: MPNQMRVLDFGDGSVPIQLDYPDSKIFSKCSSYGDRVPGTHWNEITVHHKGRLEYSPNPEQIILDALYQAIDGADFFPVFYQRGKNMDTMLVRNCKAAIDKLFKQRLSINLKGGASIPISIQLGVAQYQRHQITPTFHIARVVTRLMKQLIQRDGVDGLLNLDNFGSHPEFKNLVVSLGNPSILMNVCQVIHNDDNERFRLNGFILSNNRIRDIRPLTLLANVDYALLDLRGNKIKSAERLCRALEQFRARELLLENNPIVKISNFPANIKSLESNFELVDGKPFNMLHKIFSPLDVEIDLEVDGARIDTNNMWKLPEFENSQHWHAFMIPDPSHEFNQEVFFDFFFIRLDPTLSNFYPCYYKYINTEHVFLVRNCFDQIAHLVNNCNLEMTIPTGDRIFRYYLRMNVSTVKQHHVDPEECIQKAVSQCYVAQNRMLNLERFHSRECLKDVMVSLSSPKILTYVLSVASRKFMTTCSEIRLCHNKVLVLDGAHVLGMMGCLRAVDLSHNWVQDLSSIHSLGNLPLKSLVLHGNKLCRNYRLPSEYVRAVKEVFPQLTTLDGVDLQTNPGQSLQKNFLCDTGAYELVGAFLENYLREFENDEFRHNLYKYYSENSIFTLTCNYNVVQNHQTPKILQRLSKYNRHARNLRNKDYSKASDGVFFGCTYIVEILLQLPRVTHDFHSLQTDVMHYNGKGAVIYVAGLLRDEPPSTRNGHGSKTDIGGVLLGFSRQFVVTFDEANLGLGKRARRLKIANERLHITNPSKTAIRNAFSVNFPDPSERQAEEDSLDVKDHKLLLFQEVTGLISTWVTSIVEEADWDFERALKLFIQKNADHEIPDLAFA

These are yes or no findings as the source states them, for the method shown. In cells and extracts the contact can be indirect. Some entries that bind do so weakly or less than the wild type.

The target in this assay is T1, Piwi (Drosophila (endogenous in OSCs and ovary)) (UniProt Q9VKM1).
T1 sequence: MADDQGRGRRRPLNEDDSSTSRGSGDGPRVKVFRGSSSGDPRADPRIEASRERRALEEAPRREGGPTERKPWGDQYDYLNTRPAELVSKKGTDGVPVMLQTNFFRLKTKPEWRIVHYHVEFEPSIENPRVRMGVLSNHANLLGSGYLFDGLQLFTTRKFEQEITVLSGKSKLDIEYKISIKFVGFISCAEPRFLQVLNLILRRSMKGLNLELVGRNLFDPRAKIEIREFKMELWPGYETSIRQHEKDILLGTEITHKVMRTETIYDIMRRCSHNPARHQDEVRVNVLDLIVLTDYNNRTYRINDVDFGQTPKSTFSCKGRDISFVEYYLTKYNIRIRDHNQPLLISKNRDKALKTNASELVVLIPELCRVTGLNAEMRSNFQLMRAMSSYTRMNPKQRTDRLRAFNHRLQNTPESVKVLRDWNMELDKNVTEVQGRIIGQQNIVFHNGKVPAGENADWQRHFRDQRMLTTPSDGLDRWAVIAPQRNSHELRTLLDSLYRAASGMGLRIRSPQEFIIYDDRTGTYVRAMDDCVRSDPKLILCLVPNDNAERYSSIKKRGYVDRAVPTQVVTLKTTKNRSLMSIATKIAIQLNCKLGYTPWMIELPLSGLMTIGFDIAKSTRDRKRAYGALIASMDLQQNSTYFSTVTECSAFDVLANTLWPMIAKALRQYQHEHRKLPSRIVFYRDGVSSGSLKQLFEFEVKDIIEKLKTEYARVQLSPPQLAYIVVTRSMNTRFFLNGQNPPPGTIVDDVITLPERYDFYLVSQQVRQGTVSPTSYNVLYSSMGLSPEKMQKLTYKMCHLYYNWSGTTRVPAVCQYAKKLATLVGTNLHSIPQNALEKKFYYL
Description: co-IP.

With “Nxf2, nuclear RNA export factor (NXF) variant (from UniProt Q9VV73 1-841)”, the binding result is on record as “binds”.
